Results: PubChem BioAssay AID2685 (National Center for Advancing Translational Sciences (NCATS), 2010)
This is one part of the list. These are further read-outs of the screen, such as a control signal, another cell line or another target. No call is given for them. Most of these compounds were active or inconclusive in the main read-out, so they are no random draw. Words in brackets tell the shape of the fitted curve; partial curves, single points and poor fits give uncertain potencies.

Assay: qHTS Assay for Lipid Storage Modulators in Drosophila S3 Cells;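 for cell number change: cells counted by Cell Tracker Red CMTPX staining in the red channel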
Conditions: BODIPY lipid droplet fluorescence, 18-24 h; for cell number change: measured here: cell count max response, cells fed with added oleic acid
How it was run: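 Laser-scanning cytometry quantifies lipid droplet accumulation (500–530 nm total intensity; droplet/cell object ratio) in oleic acid-fed (400 uM added) Drosophila S3 cells treated with a concentration series. 20 uM Triacsin C defined 100% inhibition.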

[1] = measured here: cell number channel AC50, cells fed with added oleic acid
[2] = measured here: lipid fluorescence (Fed channel) AC50, cells fed with added oleic acid

Row | Structure (SMILES) | cell number change [%] | AC50 [1] | AC50 [2]
1 | CC1c2cc3c(cc2CCN1C(=O)c1ccc(C(F)(F)F)cc1)OCCCO3 (stereo not given) | -4.72 | 4.61 µM [rising, single point] | 6.51 µM [rising, single point]
2 | Cc1cc2c(C)nc(-c3ccccc3)nc2o1 | 1.53 | 0.326 µM [rising, partial curve] | 0.164 µM [rising, full curve, poor fit]
3 | CCOc1ccc(/C=N\NC(=O)CC(=O)NCCc2ccccc2)cc1 | -8.29 |  | 6.51 µM [falling, single point]
4 | COC(=O)c1ccccc1S(=O)(=O)N1CCC(C(=O)NCc2ccco2)CC1 | -12.4 |  | 0.58 µM [falling, full curve]
5 | CC(=O)NC(c1ccccc1)c1cc(Cl)c2cccnc2c1O (stereo not given) | -17.8 |  | 6.51 µM [rising, single point]
6 | COc1cc(NC(=O)CSc2nnnn2-c2ccccc2)cc(OC)c1OC | -8.65 |  | 0.92 µM [rising, full curve, poor fit]
7 | CC1(C)OC(=O)C(=CNc2ccccc2F)C(=O)O1 | -201 | 18.4 µM [falling, partial curve] | 20.6 µM [falling, partial curve]
8 | CCCCn1c(N)c(N(CC)C(=O)CCc2ccccc2)c(=O)[nH]c1=O | 2.69 |  | 7.31 µM [falling, full curve, poor fit]
9 | CN1CCN(c2ccc(S(=O)(=O)N3CCCCC3)cc2NC(=O)COc2cccc(Cl)c2)CC1 | 16.3 |  | 0.82 µM [rising, single point]
10 | Cc1ccc(C(=O)NCCCNC(=O)COc2ccc(C)c(C)c2)cn1 | 16.4 |  | 11.6 µM [falling, partial curve]
11 | COc1cccc(C2CC(c3ccccc3Cl)n3ncnc3N2)c1 (stereo not given) | -32.7 | 11.6 µM [falling, partial curve] | 
12 | COC(CNC(=O)Cn1ncc2ccsc2c1=O)OC | -29 |  | 0.731 µM [falling, full curve]
13 | CC(Sc1nnc(-c2cccs2)n1C1CC1)C(=O)NCC1CCCO1 (stereo not given) | 9.49 |  | 6.51 µM [rising, single point]
14 | O=C(CN1CCCCC1)N1c2ccccc2Oc2ccccc21 | 3.62 |  | 2.06 µM [falling, partial curve]
15 | Cc1ccccc1C(=O)Nc1ccnn1C1CCN(Cc2ccc(CO)o2)CC1 |  |  | 10.3 µM [rising, partial curve]
16 | CC(OC(=O)c1ccc2ccccc2n1)C(=O)Nc1ccc(N2CCOCC2)cc1 (stereo not given) | -0.0714 |  | 0.116 µM [rising, full curve, poor fit]
17 | c1ccc(COCCC2CO2)cc1 (stereo not given) | 17.5 |  | 29.1 µM [rising, single point]
18 | CC1CCN(C(=O)CN2C(=O)NC(c3ccccc3)(c3ccccc3)C2=O)CC1 | -3.76 |  | 1.16 µM [falling, full curve, poor fit]
19 | O=c1ccc(/C=C/c2ccccc2)nn1Cc1ccccc1Cl | -44.3 | 18.4 µM [falling, single point] | 20.6 µM [falling, single point]
20 | O=C(CN1C(=O)NC2(CCCCC2)C1=O)Nc1cc(C(F)(F)F)ccc1N1CCCC1 |  | 0.116 µM [falling, full curve, poor fit] | 

Molecules from the list above that have a CF3 group, in the order listed:
Row | Structure (SMILES) | cell number change [%] | AC50 [1] | AC50 [2]
1 | CC1c2cc3c(cc2CCN1C(=O)c1ccc(C(F)(F)F)cc1)OCCCO3 (stereo not given) | -4.72 | 4.61 µM [rising, single point] | 6.51 µM [rising, single point]
20 | O=C(CN1C(=O)NC2(CCCCC2)C1=O)Nc1cc(C(F)(F)F)ccc1N1CCCC1 |  | 0.116 µM [falling, full curve, poor fit] | 

Following part:

Row | Structure (SMILES) | cell number change [%] | AC50 [1] | AC50 [2]
21 | COc1ccc(CCNC(=O)c2nnc(Cc3c(F)cccc3Cl)o2)cc1OC | -8.07 |  | 11.6 µM [rising, partial curve]
22 | COc1ccc(OCc2nnc3n2N=C(c2ccc(C)cc2)CS3)cc1 |  | 0.116 µM [rising, partial curve, poor fit] | 0.00517 µM [rising, full curve, poor fit]
23 | COc1ccccc1NC(=O)c1ccc(S(=O)(=O)N2CCOCC2)cc1 | -2.69 |  | 
24 | O=C(NCCOc1ccc(Cl)cc1)c1ccc2c(c1)OCCO2 | -23.2 |  | 18.4 µM [falling, single point]
25 | CNc1nc(-c2ccccc2)nc(-c2ccccc2)c1C#N | -0.574 |  | 0.58 µM [rising, full curve]
26 | CC1CCC(N2CCN(S(=O)(=O)Cc3ccccc3)CC2)CC1 (stereo not given) | -5.86 |  | 3.26 µM [rising, partial curve, poor fit]
27 | Cc1ccc(NC(=S)NC(=O)c2ccc(-c3ccc(Cl)cc3)o2)c(O)c1 | -58.4 | 16.4 µM [falling, partial curve] | 10.3 µM [falling, partial curve]
28 | O=C(CSc1nc2ncccc2[nH]1)Nc1ccc2c(c1)OCCO2 | 27 |  | 29.1 µM [rising, single point]
29 | S=C(NCc1ccncc1)Nc1ccc(Cl)cc1Cl | 0.216 |  | 
30 | Cc1csc(N2CCN(c3cc4c(cc3Cl)nc(-c3ccncc3)n4CCCN3CCCC3)CC2)n1 | -4.49 |  | 29.1 µM [rising, single point]
31 | COc1ccc(CNC(=O)C2CCN(S(=O)(=O)N3CCC4(CC3)OCCO4)CC2)c(OC)c1 | 16.9 |  | 11.6 µM [rising, partial curve, poor fit]
32 | Cc1cc(Cl)c2oc(C(=O)N3CCC(O)(c4ccccc4)CC3)c(C)c2c1 | -26.5 |  | 29.1 µM [rising, single point]
33 | NC(N)=NS(=O)(=O)c1ccc(NC(=S)NC(=O)Cc2ccc(Cl)cc2)cc1 | 18.7 |  | 
34 | Cc1ccc(N(C(=O)CNC(=O)c2ccco2)C(C(=O)NC2CCCCC2)c2cccnc2)cc1C (stereo not given) | 17.5 |  | 0.116 µM [rising, single point]
35 | COc1cccc(/C(C)=N/Nc2ncc(Cl)cc2Cl)c1 | 8.61 |  | 5.17 µM [rising, partial curve, poor fit]
36 | COc1ccc(C(=O)Nc2ccccc2C(=O)N/N=C/c2ccncc2)cc1OC | 10.7 | 5.17 µM [rising, partial curve, poor fit] | 1.03 µM [rising, partial curve, poor fit]
37 | COc1ccc(OC)c(S(=O)(=O)N2CCCC2C(=O)NC(C)c2ccccc2)c1 (stereo not given) | -5.77 |  | 
38 | COc1ccc(-c2csc(C3=C(O)CN(Cc4ccc(Cl)cc4)C3=N)n2)cc1OC | -2.63 | 0.184 µM [rising, partial curve, poor fit] | 1.16 µM [rising, partial curve]
39 | CN(C)c1ccc(-c2ccc([C@H]3[C@@H]4C=CCC[C@@]4(C)C(=O)N3Cc3ccccc3)c(F)c2)cc1 | -29.5 |  | 29.1 µM [falling, single point]
40 | Cc1ccc(CNc2ncc(-c3ccc4c(c3)OCO4)n2C)cc1 | 4.61 |  | 4.61 µM [rising, partial curve]

Row | Structure (SMILES) | cell number change [%] | AC50 [1] | AC50 [2]
41 | CC(=O)N1CCN(C(=O)c2ccccc2NS(=O)(=O)c2ccc(F)cc2)CC1 | 17.1 |  | 25.9 µM [falling, single point]
42 | Cn1c(=O)c(C(=O)CN2CCCc3ccccc32)c(N)n(Cc2ccccc2)c1=O | -33.3 | 18.4 µM [falling, single point] | 18.4 µM [falling, single point]
43 | Cc1ccccc1C(=O)OCc1cnc(Cl)s1 | 9.59 |  | 1.16 µM [falling, single point]
44 | CCOCCSc1nnc2nc(C)cc(C)n12 | 10.8 |  | 
45 | COc1ccc(N2CCN(C(=O)c3cc(-c4ccc(F)cc4)[nH]c3C)CC2)cc1 | -14.1 |  | 
46 | CCN(CC(=O)Nc1c(F)cccc1F)C(=O)c1ccc(-c2ccc(C(C)=O)cc2)o1 | 10.5 |  | 0.058 µM [falling, full curve, poor fit]
47 | Cc1ccccc1/C=N/NC(=O)Cn1cnc([N+](=O)[O-])n1 | 8.63 |  | 29.1 µM [falling, single point]
48 | Cc1ccc(/C=C/C(=O)Nc2ccc([N+](=O)[O-])cc2)o1 | -35.8 | 7.31 µM [falling, full curve, poor fit] | 
49 | Cc1ccc(S(=O)(=O)N2CCC(C(=O)N/N=C/c3ccncc3)CC2)cc1 | -51.2 |  | 
50 | CC1CCCCN1C(=O)CSc1nc2cc3c(cc2c(=O)n1Cc1ccc2c(c1)OCO2)OCO3 (stereo not given) |  | 0.82 µM [rising, full curve] | 0.92 µM [rising, full curve]
51 | CCOC(=O)c1c(S(=O)(=O)NCCc2ccccc2)c(C)n(C)c1C |  |  | 1.64 µM [falling, partial curve]
52 | O=C(Oc1ccc2c(c1)OCO2)c1cc2c(s1)CCC2 | -10.1 |  | 11.6 µM [falling, partial curve, poor fit]
53 | Cc1cc(C)nc(Nc2nc(=O)c3ccccc3s2)n1 | 35.2 | 10.3 µM [rising, single point] | 
54 | C=CCn1c(C)cc(C2=NNC(=Nc3ccc(C)cc3)SC2)c1C | 29.6 |  | 0.259 µM [falling, full curve, poor fit]
55 | CCOC(=O)N1CCN(c2c(NCCCN(CC)CC)c(=O)c2=O)CC1 | -29.8 |  | 
56 | COc1ccc(/C=N/NC(=O)c2cc(-c3ccccc3)nc3ccccc23)c(OC)c1 | 5.19 |  | 6.51 µM [falling, single point]
57 | O=C(CSc1nc2ccc(NC(=O)c3ccccc3C(=O)O)cc2s1)Nc1c(Cl)cccc1Cl | -5.71 | 0.116 µM [rising, full curve, poor fit] | 
58 | Cn1c(NCCCO)nc2ccccc21 | 19.2 |  | 0.206 µM [falling, full curve, poor fit]
59 | Cc1cccc(N2CCN(C(=O)C3CC(=O)N(C4CCCC4)C3)CC2)c1C (stereo not given) | 0.758 |  | 29.1 µM [falling, single point]
